Measurements from “University of Dundee, Small-Polar-MMV Screening Library” (2021), ChEMBL document CHEMBL3988442.

Chains of the proteins cited; added tags and fusions are not shown.
UniProt E9BF75, entry or part of it: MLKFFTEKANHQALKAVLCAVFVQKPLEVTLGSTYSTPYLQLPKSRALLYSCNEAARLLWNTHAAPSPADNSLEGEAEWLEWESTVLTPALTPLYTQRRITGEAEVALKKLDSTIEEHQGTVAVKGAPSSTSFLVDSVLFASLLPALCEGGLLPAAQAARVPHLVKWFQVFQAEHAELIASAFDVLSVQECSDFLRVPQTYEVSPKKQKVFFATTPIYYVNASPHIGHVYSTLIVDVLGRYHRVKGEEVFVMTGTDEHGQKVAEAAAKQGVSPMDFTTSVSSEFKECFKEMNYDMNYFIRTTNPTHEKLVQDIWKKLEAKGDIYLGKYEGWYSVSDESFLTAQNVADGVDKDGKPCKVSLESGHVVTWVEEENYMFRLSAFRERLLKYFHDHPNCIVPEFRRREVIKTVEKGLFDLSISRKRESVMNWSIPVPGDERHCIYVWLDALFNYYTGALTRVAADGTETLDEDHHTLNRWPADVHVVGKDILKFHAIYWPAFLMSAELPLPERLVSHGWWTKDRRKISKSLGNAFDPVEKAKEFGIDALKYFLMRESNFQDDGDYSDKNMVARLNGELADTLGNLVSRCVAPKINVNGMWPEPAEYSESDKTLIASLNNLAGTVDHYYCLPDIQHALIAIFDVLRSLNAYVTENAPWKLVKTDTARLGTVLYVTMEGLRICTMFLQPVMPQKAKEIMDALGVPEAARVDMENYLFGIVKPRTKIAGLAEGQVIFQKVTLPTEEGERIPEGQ

Mtb heat-shock: 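Assay on Mycobacterium tuberculosis, filed only as a heat shock assay from Cornell; the read-out is not stated. The concentration is filed as 10 mM, unlikely as a test dose, so the dose is not known. Direction is inferred from retests: higher values go with stronger inhibition. About 69,000 compounds were tested under these conditions; 1.4% (about 930) showed 50% or more at least once.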
Mtb growth Cornell: 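Whole-cell assay for inhibitors of Mycobacterium tuberculosis growth, labelled Cornell in the record; the read-out is not stated. The concentration is filed as 10 mM, unlikely as a test dose, so the dose is not known. Higher means stronger inhibition (inferred from two other growth screens of the library). Of about 53,000 compounds tested this way, about 900 (1.7%) reached 50% or more in at least one test.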
LdMetRS: 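Primary screen of methionyl-tRNA synthetase; the read-out is not stated. Target: Methionyl-tRNA synthetase (putative), Leishmania donovani (UniProt E9BF75). The test concentration is not given. The values are filed as inhibition. Of about 68,000 compounds tested this way, about 24 (0.035%) reached 50% or more in at least one test.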

All values are in %.
How 0% and 100% were set is not recorded. Most values in the screen are low, and negative values occur.
This is an unselected part of the compounds tested.
A dash means the value is not listed here; it may have been measured.

Compound | Mtb heat-shock | Mtb growth Cornell | LdMetRS
COc1ccc2c(c1)C1(CCN(Cc3ccccn3)CC1)N(C)CC2.O=C(O)C(F)(F)F.O=C(O)C(F)(F)F | -17.78 | 17.73 | -
Cc1csc(N2CCN(C(=O)NCCNc3ncccn3)CC2)n1 | -3.162 | - | 16.87
O=C1CC(c2ccccc2Br)c2sc(N3CCOCC3)nc2N1 (centres unmarked) | -7.112 | 44.02 | 4.533
Cc1cc(CNc2cc(Cl)ccc2C)no1 | -8.87 | - | 15.21
N#Cc1ccc(OCC(O)CN2CCC(c3ccn[nH]3)CC2)cc1 (centres unmarked) | -19.78 | - | 17.18
[H][C@@]12C[C@@H](O)CN1C[C@H](Cc1ccccc1)N(Cc1cnc(OC)nc1)C2 | -17.98 | -4.758 | -
CN1CCCC1CNC(=O)CCCOc1cccc(F)c1 (centres unmarked) | -11.98 | - | 17.49
Cc1ccc(-c2cc(CNC(=O)NC3CCCCNC3=O)on2)cc1 (centres unmarked) | -11.59 | 19.83 | 7.627
Cc1ccc(OCC(O)CN2CCC(Cn3cc(C)cn3)CC2)cc1 (centres unmarked) | 10.83 | - | 13.66
COCCOCC(C)NC(=O)COc1nn(C)c2nc(C)cc(C)c12 (centres unmarked) | 0.6117 | - | 8.122
Cc1cc(C(=O)N2C[C@@H]3[C@@H](CN(C)CCc4ccccn4)[C@@H]3C2)c(C)o1 | - | - | 10.68
O=C(NCC[S+]([O-])c1ccccc1)c1ccc2[nH]c(=O)[nH]c2c1 (centres unmarked) | 12.12 | 15.24 | 24.13
O=C(C1CC2(CCNCC2)CN1)N1CCN(c2cccc(Cl)c2Cl)CC1 (centres unmarked) | 26.12 | 32.99 | 14.25
CCOCCC(=O)N1CCCC(CO)(CC2CC2)C1 (centres unmarked) | 23.13 | - | 14.21
O=C1NC2(CCN(C(=O)N3CCOCC3)CC2)CC1c1cccnc1 (centres unmarked) | - | - | 11.04
Cc1ncsc1CN1CC(C)(C2CC2)CC1=O (centres unmarked) | 3.99 | - | 13.4
COCCOCC(=O)Nc1ccc(C)cc1Cl | 2.577 | 19.91 | 15.21
O=C(CCc1ccco1)Nc1ccc(Br)cn1 | 3.374 | 32.13 | 11.81
COc1ccc(F)c(CN2CCCC3(CCN(S(C)(=O)=O)C3)C2)c1 (centres unmarked) | -18.53 | 38.74 | 5.914
O=C(O)C(F)(F)F.[H][C@@]12CN(C(=O)Cc3ccsc3)C[C@]1([H])OCCN2CC1CC1 | -3.191 | -9.72 | -
CNC(=O)C(C)(C)N1CCC[C@H]1C(=O)NCCN(C)C | - | - | 6.593
CCc1cc(C(=O)N2CCC(O)(Cn3ccc4ccncc43)CC2)no1 | -7.484 | -10.54 | 20.06
Cn1ccnc1CCNS(=O)(=O)c1cccc(Br)c1 | -24.17 | - | -
[H][C@@]12CCC(=O)N(CCc3ccccc3)[C@]1([H])CCN(Cc1cnn(C)c1)C2 | -18.25 | 8.304 | -
Cc1noc(C(C)N2CCN(c3ccc(C#N)cn3)CC2)n1 (centres unmarked) | -16.34 | - | 9.492
CC(C)CNC(=O)[C@H]1CCS(=O)(=O)[C@@H]2CN(Cc3cccnc3)C[C@H]12 | - | - | 11.17
O=C(c1ccc(N2CCCC2)nc1)N1CCCC(n2cncn2)C1 (centres unmarked) | 7.13 | - | 12.22
Cn1cc(CN2CCc3ncnc(N4CCOCC4)c3CC2)cn1 | - | - | 12.11
COc1c(C2CCCN2C(=O)c2ccnc(N(C)C)c2)c(C)nn1C (centres unmarked) | -11.12 | - | 13.19
Cc1nn(C)c2c(=O)n(CC(=O)NCCC(C)C)ccc12 | 13.13 | 2.416 | 7.494
c1ccc(CCN2CCCC2c2cncc(Nc3nncs3)n2)cc1 (centres unmarked) | 99.24 | -13.92 | 1.575
O=C(O)C(F)(F)F.[H][C@@]12CNC(=O)[C@@H](C)[C@]1([H])CN(Cc1ccc3c(c1)OCO3)C2 | 0.06626 | 19.39 | -
O=c1[nH]c(=O)n(CC(O)c2ccc(F)cc2F)cc1Cl (centres unmarked) | 5.666 | - | 20.89
N#CCCN(CC1CC1)S(=O)(=O)c1cccc(Cl)c1 | -33.8 | 17.16 | 5.645
COCCN(C)Cc1cc(Cl)ccc1OCC(O)CN1CCCCCC1 (centres unmarked) | 4.611 | 5.976 | 17.96
Cc1ccc(C(C)NC(=O)Nc2ccccc2CN2CCOCC2)o1 (centres unmarked) | -12.42 | 10.96 | 15.99
O=C(Cc1ccc(F)cc1)NCCc1ccoc1 | 16.91 | -13.92 | 7.971
CCOc1ccc(NS(=O)(=O)c2cc(C)c(C(=O)O)s2)cc1F | 9.472 | - | 7.117
CN(CCN1CCOC1=O)CC(=O)Nc1ccc(Cl)c(C(F)(F)F)c1 | -19.47 | -24.72 | 10.61
CC(C)c1cc(NC(=O)CN2CCCC2c2noc(C(C)C)n2)on1 (centres unmarked) | -5.812 | 9.499 | 18.21
CCS(=O)(=O)NCc1nc(C)cc(N2CCCCC2)n1 | -0.2214 | -10.03 | 10.45
c1ccc(CO[C@H]2CO[C@@]3(CCCN(Cc4ccncc4)C3)C2)nc1 | -20.29 | 14.78 | 19.31
[H][C@]12CC[C@]([H])(CN(C(=O)CCc3nc(Cl)n[nH]3)C1)N(CC=C(C)C)C2=O | -42.68 | 20.81 | -
COCc1ncn2c1CN(S(=O)(=O)Cc1ccc(C)cc1)CC2.O=C(O)C(F)(F)F | -35.96 | 39.52 | -
CCC(C)C(=O)N(C)Cc1cc(F)ccc1N1CCC(OC)CC1 (centres unmarked) | -23.99 | -13.64 | 8.672
Cc1sc2nc(SC(C)c3nc(C(C)C)no3)nc(N)c2c1C (centres unmarked) | 4.229 | 3.537 | 13.75
CC(=O)N1CCN(Cc2ccc(C)o2)CC2(CC(=O)N(C)C2)C1 (centres unmarked) | - | - | 8.013
Cc1nnn2c1COC(CNCc1nccs1)C2.O=C(O)C(F)(F)F (centres unmarked) | -32.19 | - | -
CN1CCN(C(=O)c2ccnc(N3CCOC(C(F)(F)F)C3)c2)CC1 (centres unmarked) | -11.82 | 0.5339 | 4.839
CO[C@H]1C[C@@H](O)C12CCN(C(=O)NCc1ccco1)CC2 | -12.14 | - | 8.683
Cc1ccc(Cl)cc1N1CCC(CNC(=O)CCn2ccnn2)C1 (centres unmarked) | 62.44 | 15.31 | 13.5
Cc1nc(C)c(CN2CCOC(Cc3ccccc3Cl)C2)nc1C (centres unmarked) | 19 | 27.22 | 15.5
O=C(COCC1CC1)N1CCSCC1 | 15.38 | -17.35 | 13.19
Cc1cc(CN2CC[C@H]3C[C@H](C)O[C@@H]3C2)no1 | - | - | 17.17
CC(C)NC(=O)C1CN(C(=O)CCc2ccccc2)CC12CCOCC2 (centres unmarked) | -26.2 | -14.48 | 8.357
CC(=O)N[C@H](C)c1c(-c2ccc(Cl)cc2)noc1C(=O)O | -13.28 | - | 18.13
O=C1CO[C@@H]2CN(S(=O)(=O)c3ccccc3F)C[C@H]2N1 | - | - | 10.44
CC(OCC1CC1)C(=O)Nc1ccn(Cc2ccccc2)n1 (centres unmarked) | -11.4 | -1.057 | 10.03
COc1ccccc1CN1C[C@@H](F)[C@@H](OCc2nc3ccccc3[nH]2)C1 | -21.28 | -4.462 | 10.53
CC(C)NC(=O)N[C@H]1C[C@@H](c2nc(-c3ccncc3)no2)N(C)C1 | -29.42 | 2.055 | 2.373
Cc1nn(C)c(C)c1C1CCCN1C(=O)c1cnc2n[nH]c(C)c2c1 (centres unmarked) | 10.37 | -8.309 | 14.29
COCc1ccccc1C(=O)OCc1noc(C)n1 | -17.21 | 13.11 | 12.7
c1ccc2c(Cc3nnc([C@H]4CCN(C5CCC5)C4)o3)c[nH]c2c1 | -8.954 | 7.66 | 10.53
O=C(Cc1cccs1)NCc1ccnc(C2CCCOC2)n1 (centres unmarked) | 9.193 | 6.218 | 9.302
CCc1nn(C)c(Cl)c1CN(CCOC)Cc1cnn(C)c1 | 2.679 | - | 12.04
[H][C@]12CCC(=O)N(c3ccccc3)[C@@]1([H])CCN2C(=O)c1cccn1C | -19.96 | 8.519 | -
O=C(Cc1ccccc1F)NCCN1CCOCC1 | 1.753 | -19.74 | 3.333
CNS(=O)(=O)CC(=O)NCc1cc2c(s1)CCCCC2 | -4.376 | -2.465 | 13.69
COc1ccc(-c2nc(C#N)c(N(C)C)o2)cc1S(=O)(=O)N(C)C | 4.853 | 15.6 | 10.78
O=C(Cn1ccc2ccc(Br)cc21)NC[C@@H]1CCCN2CCCC[C@H]12 | - | - | 6.224
Cc1ccc(CN2CCc3[nH]nc(C(=O)N4CCNC(=O)C4)c3C2)s1.O=C(O)C(F)(F)F | -32.06 | 12.77 | -